Results taken from doi:10.1101/2025.07.25.666749.

Chains of the proteins cited; added tags and fusions are not shown.
UniProt Q9HC16: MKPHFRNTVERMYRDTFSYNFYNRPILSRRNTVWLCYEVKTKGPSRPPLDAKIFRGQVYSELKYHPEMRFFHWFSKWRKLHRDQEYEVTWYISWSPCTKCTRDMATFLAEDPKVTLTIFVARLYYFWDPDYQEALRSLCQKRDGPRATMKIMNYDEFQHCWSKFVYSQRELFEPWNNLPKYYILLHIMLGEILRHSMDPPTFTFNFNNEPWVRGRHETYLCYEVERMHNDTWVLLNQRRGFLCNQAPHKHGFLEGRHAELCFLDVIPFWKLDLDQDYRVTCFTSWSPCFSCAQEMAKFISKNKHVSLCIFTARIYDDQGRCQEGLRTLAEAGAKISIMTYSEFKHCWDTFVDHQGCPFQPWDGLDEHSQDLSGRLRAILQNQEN
UniProt O15234: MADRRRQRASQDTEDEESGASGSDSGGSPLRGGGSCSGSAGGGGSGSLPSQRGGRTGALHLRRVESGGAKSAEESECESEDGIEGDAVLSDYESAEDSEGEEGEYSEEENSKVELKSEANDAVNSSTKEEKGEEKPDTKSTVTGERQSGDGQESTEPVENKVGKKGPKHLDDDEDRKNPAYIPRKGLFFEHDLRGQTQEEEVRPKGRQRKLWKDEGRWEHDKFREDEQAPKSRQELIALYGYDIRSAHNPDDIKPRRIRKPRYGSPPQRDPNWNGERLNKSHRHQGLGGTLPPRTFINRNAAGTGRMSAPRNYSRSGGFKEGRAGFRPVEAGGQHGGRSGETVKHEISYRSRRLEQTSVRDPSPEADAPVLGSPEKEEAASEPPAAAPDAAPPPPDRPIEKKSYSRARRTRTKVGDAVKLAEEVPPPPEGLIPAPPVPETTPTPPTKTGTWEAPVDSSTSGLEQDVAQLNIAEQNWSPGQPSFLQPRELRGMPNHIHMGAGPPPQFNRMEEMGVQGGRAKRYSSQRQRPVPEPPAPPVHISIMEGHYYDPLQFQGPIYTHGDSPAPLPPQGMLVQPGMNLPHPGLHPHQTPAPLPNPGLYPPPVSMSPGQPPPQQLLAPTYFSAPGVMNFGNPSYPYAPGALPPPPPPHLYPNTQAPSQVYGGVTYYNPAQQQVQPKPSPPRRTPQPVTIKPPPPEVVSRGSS
UniProt P51116: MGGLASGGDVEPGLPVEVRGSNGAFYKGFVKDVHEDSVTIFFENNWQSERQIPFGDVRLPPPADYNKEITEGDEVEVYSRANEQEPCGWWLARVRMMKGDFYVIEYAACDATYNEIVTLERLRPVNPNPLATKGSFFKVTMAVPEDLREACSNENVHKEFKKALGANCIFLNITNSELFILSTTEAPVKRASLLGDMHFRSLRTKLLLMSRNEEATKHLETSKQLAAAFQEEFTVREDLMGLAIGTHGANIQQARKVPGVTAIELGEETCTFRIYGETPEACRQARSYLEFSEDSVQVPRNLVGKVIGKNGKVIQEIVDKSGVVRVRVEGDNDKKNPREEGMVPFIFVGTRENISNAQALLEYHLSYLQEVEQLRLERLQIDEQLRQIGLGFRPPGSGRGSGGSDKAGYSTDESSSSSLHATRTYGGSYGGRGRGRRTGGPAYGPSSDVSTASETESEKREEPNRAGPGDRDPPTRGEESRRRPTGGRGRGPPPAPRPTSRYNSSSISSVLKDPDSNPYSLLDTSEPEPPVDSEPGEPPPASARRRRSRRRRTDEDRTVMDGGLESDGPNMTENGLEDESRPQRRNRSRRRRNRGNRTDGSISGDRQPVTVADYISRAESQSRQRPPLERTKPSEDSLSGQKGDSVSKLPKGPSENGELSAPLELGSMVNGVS
UniProt P33241: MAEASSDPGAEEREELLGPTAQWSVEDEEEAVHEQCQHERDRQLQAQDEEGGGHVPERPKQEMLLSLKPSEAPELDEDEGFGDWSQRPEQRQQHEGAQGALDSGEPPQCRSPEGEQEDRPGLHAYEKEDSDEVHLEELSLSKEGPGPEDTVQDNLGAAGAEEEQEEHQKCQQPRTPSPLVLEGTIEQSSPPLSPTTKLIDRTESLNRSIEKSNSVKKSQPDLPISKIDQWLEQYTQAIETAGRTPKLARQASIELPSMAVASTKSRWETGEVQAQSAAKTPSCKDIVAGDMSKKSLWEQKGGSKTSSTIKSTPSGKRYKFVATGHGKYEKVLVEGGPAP
UniProt P11940: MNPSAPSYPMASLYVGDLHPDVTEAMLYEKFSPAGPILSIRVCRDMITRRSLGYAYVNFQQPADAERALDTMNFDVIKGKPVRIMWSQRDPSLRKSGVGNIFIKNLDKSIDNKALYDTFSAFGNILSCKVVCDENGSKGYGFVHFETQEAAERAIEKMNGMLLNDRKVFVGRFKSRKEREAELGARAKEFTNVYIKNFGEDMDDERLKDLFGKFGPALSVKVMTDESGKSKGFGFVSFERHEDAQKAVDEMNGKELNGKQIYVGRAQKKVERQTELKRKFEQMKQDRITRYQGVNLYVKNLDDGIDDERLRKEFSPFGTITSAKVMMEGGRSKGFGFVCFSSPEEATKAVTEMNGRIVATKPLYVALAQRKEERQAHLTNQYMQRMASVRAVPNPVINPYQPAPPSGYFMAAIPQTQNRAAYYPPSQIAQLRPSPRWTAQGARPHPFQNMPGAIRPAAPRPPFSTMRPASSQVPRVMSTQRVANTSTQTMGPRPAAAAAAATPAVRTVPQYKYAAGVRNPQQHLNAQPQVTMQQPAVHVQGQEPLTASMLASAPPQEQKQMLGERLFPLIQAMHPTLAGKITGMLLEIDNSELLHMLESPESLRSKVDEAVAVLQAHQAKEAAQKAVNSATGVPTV
UniProt O75381: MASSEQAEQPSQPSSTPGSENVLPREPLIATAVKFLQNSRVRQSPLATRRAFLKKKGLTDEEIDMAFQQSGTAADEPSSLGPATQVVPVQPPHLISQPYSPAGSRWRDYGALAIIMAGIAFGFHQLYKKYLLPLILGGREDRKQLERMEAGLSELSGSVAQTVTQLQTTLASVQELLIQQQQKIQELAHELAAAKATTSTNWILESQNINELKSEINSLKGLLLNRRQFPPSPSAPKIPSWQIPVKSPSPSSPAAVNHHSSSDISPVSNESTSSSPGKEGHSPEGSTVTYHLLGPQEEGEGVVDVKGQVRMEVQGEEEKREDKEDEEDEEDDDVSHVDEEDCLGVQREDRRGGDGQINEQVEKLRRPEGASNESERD
UniProt P48634: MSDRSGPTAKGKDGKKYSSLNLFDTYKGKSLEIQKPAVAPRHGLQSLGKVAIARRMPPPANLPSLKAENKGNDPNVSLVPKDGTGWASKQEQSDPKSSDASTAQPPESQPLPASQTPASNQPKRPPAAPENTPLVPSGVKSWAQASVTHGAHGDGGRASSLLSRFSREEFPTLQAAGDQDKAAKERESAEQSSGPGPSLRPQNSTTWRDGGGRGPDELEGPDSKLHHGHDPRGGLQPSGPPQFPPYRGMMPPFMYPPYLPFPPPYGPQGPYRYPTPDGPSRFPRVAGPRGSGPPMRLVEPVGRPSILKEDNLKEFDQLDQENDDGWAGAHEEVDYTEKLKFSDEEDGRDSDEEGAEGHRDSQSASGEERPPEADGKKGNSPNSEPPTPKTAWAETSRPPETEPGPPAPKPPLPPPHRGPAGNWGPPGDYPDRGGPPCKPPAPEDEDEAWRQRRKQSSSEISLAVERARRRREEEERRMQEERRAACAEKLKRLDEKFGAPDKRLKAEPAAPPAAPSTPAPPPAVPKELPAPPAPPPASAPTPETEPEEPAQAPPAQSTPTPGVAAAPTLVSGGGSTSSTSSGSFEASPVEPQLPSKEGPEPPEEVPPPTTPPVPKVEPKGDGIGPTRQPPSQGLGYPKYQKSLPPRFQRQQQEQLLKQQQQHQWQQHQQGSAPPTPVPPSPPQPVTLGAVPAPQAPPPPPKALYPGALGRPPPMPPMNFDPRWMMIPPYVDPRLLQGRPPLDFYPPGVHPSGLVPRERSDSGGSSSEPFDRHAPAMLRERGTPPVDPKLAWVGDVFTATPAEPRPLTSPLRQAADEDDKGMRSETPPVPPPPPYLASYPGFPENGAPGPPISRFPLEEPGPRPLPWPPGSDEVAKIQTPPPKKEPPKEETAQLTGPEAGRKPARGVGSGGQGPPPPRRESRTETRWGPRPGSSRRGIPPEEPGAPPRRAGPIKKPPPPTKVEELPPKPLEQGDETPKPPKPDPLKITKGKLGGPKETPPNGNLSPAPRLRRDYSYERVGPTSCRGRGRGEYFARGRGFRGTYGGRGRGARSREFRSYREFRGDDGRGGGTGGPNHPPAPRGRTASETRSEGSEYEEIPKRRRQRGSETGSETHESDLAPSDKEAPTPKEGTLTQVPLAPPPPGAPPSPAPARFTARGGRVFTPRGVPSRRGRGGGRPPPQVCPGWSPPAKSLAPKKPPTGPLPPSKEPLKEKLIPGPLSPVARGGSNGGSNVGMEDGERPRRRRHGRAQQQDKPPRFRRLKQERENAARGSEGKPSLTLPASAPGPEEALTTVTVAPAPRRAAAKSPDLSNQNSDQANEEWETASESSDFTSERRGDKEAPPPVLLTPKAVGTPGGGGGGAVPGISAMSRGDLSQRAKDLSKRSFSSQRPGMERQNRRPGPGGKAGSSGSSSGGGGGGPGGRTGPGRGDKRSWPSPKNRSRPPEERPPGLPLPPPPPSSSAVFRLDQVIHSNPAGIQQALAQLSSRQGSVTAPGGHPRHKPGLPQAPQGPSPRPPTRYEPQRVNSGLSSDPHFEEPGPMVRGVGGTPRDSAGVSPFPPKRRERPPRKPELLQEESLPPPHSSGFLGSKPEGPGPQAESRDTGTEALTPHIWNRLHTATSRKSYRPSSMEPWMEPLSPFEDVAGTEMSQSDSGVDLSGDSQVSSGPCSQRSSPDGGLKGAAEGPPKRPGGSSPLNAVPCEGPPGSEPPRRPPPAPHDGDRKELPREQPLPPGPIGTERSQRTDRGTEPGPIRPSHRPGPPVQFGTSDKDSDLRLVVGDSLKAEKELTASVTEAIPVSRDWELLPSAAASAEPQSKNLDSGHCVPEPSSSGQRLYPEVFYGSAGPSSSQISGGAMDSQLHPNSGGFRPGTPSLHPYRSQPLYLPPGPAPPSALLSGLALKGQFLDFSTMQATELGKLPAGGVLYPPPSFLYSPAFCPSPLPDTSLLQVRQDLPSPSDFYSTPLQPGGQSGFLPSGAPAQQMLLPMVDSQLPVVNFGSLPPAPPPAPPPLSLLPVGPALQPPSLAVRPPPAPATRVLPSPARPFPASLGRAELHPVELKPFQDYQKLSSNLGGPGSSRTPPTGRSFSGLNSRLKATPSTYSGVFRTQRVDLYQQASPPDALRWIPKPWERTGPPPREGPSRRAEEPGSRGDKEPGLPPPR
UniProt Q5VSL9: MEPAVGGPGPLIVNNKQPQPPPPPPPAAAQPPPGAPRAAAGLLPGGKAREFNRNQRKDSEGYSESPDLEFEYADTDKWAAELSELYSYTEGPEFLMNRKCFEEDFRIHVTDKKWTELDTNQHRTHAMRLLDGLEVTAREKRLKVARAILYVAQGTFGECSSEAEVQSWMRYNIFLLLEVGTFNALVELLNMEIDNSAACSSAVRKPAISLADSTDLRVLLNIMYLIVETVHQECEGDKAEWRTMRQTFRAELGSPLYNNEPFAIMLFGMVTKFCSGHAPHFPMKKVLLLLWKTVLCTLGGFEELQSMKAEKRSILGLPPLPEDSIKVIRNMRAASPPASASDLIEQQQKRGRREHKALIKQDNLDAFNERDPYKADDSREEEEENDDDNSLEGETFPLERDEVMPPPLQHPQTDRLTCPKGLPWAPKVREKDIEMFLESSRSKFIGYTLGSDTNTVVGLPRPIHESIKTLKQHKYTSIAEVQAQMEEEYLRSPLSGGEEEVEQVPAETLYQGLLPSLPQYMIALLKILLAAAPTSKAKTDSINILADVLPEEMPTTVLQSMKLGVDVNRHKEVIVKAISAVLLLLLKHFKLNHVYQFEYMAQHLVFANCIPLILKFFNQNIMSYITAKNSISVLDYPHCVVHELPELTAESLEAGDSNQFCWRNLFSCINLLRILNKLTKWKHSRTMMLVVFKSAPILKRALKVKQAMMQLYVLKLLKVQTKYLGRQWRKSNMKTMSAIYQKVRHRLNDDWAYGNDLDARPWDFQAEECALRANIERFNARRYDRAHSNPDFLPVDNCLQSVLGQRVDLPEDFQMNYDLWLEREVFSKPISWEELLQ
UniProt P67809: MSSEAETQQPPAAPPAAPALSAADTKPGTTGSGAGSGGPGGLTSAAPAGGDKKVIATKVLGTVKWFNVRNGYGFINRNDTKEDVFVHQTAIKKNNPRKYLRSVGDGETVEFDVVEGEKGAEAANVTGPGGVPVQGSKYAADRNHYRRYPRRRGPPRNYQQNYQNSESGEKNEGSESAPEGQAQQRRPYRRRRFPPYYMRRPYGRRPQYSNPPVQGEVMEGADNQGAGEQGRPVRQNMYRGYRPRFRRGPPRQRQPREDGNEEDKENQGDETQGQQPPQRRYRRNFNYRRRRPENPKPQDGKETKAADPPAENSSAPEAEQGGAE

molecular target: T1, ZFP36L1 (endogenous) (human (endogenous in primary T cells)) (UniProt Q07352); assay: affinity purification with mass spectrometry
T1 sequence: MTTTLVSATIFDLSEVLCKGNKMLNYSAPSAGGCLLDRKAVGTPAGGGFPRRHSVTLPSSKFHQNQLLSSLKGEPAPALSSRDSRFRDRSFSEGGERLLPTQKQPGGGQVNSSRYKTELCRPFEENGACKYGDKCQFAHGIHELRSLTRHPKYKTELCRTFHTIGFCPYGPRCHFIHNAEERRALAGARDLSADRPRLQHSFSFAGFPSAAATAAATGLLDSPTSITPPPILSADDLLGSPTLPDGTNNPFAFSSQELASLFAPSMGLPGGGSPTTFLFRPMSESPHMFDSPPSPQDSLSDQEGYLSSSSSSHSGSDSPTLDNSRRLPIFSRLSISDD

Molecule	binding
AGO2 (from UniProt Q9UKV8 1-859)	binds
AGO3 (from UniProt Q9H9G7 1-860)	binds
APOBEC3G (from UniProt Q9HC16 1-384)	binds
CASC3 (from UniProt O15234 1-703)	binds
DISL3 (human (endogenous in primary T cells))	binds
FAM91A1 (from UniProt Q658Y4 1-838)	binds
FXR1 (from UniProt P51114 1-621)	binds
FXR2 (from UniProt P51116 1-673)	binds
Fam98A (from UniProt Q8NCA5 1-518)	binds
LSP1 (from UniProt P33241 1-339)	binds
PABPC1 (from UniProt P11940 1-636)	binds
PEX14 (from UniProt O75381 1-377)	binds
PRRC2A (from UniProt P48634 1-2157)	binds
SQSTM1 (p62) (from UniProt Q13501 1-440)	binds
STRIP1 (Fam40a) (from UniProt Q5VSL9 1-837)	binds
TNRC6B (from UniProt Q9UPQ9 1-1833)	binds
YBX1 (from UniProt P67809 1-324)	binds
ZNF598 (protein, UniProt Q86UK7 1-904) MAAAGGAEGRRAALEAAAAAAPERGGGSCVLCCGDLEATALGRCDHPVCYRCSTKMRVLCEQRYCAVCREELRQVVFGKKLPAFATIPIHQLQHEKKYDIYFADGKVYALYRQLLQHECPRCPELPPFSLFGDLEQHMRRQHELFCCRLCLQHLQIFTYERKWYSRKDLARHRMQGDPDDTSHRGHPLCKFCDERYLDNDELLKHLRRDHYFCHFCDSDGAQDYYSDYAYLREHFREKHFLCEEGRCSTEQFTHAFRTEIDLKAHRTACHSRSRAEARQNRHIDLQFSYAPRHSRRNEGVVGGEDYEEVDRYSRQGRVARAGTRGAQQSRRGSWRYKREEEDREVAAAVRASVAAQQQEEARRSEDQEEGGRPKKEEAAARGPEDPRGPRRSPRTQGEGPGPKETSTNGPVSQEAFSVTGPAAPGCVGVPGALPPPSPKLKDEDFPSLSASTSSSCSTAATPGPVGLALPYAIPARGRSAFQEEDFPALVSSVPKPGTAPTSLVSAWNSSSSSKKVAQPPLSAQATGSGQPTRKAGKGSRGGRKGGPPFTQEEEEDGGPALQELLSTRPTGSVSSTLGLASIQPSKVGKKKKVGSEKPGTTLPQPPPATCPPGALQAPEAPASRAEGPVAVVVNGHTEGPAPARSAPKEPPGLPRPLGSFPCPTPQEDFPALGGPCPPRMPPPPGFSAVVLLKGTPPPPPPGLVPPISKPPPGFSGLLPSPHPACVPSPATTTTTKAPRLLPAPRAYLVPENFRERNLQLIQSIRDFLQSDEARFSEFKSHSGEFRQGLISAAQYYKSCRDLLGENFQKVFNELLVLLPDTAKQQELLSAHTDFCNREKPLSTKSKKNKKSAWQATTQQAGLDCRVCPTCQQVLAHGDASSHQALHAARDDDFPSLQAIARIIT	binds
ZFP36L2 (protein, UniProt P47974 1-494) MSTTLLSAFYDVDFLCKTEKSLANLNLNNMLDKKAVGTPVAAAPSSGFAPGFLRRHSASNLHALAHPAPSPGSCSPKFPGAANGSSCGSAAAGGPTSYGTLKEPSGGGGTALLNKENKFRDRSFSENGDRSQHLLHLQQQQKGGGGSQINSTRYKTELCRPFEESGTCKYGEKCQFAHGFHELRSLTRHPKYKTELCRTFHTIGFCPYGPRCHFIHNADERRPAPSGGASGDLRAFGTRDALHLGFPREPRPKLHHSLSFSGFPSGHHQPPGGLESPLLLDSPTSRTPPPPSCSSASSCSSSASSCSSASAASTPSGAPTCCASAAAAAAAALLYGTGGAEDLLAPGAPCAACSSASCANNAFAFGPELSSLITPLAIQTHNFAAVAAAAYYRSQQQQQQQGLAPPAQPPAPPSATLPAGAAAPPSPPFSFQLPRRLSDSPVFDAPPSPPDSLSDRDSYLSGSLSSGSLSGSESPSLDPGRRLPIFSRLSISDD	binds
UPF1 (protein, UniProt Q92900 1-1129) MSVEAYGPSSQTLTFLDTEEAELLGADTQGSEFEFTDFTLPSQTQTPPGGPGGPGGGGAGGPGGAGAGAAAGQLDAQVGPEGILQNGAVDDSVAKTSQLLAELNFEEDEEDTYYTKDLPIHACSYCGIHDPACVVYCNTSKKWFCNGRGNTSGSHIVNHLVRAKCKEVTLHKDGPLGETVLECYNCGCRNVFLLGFIPAKADSVVVLLCRQPCASQSSLKDINWDSSQWQPLIQDRCFLSWLVKIPSEQEQLRARQITAQQINKLEELWKENPSATLEDLEKPGVDEEPQHVLLRYEDAYQYQNIFGPLVKLEADYDKKLKESQTQDNITVRWDLGLNKKRIAYFTLPKTDSGNEDLVIIWLRDMRLMQGDEICLRYKGDLAPLWKGIGHVIKVPDNYGDEIAIELRSSVGAPVEVTHNFQVDFVWKSTSFDRMQSALKTFAVDETSVSGYIYHKLLGHEVEDVIIKCQLPKRFTAQGLPDLNHSQVYAVKTVLQRPLSLIQGPPGTGKTVTSATIVYHLARQGNGPVLVCAPSNIAVDQLTEKIHQTGLKVVRLCAKSREAIDSPVSFLALHNQIRNMDSMPELQKLQQLKDETGELSSADEKRYRALKRTAERELLMNADVICCTCVGAGDPRLAKMQFRSILIDESTQATEPECMVPVVLGAKQLILVGDHCQLGPVVMCKKAAKAGLSQSLFERLVVLGIRPIRLQVQYRMHPALSAFPSNIFYEGSLQNGVTAADRVKKGFDFQWPQPDKPMFFYVTQGQEEIASSGTSYLNRTEAANVEKITTKLLKAGAKPDQIGIITPYEGQRSYLVQYMQFSGSLHTKLYQEVEIASVDAFQGREKDFIILSCVRANEHQGIGFLNDPRRLNVALTRARYGVIIVGNPKALSKQPLWNHLLNYYKEQKVLVEGPLNNLRESLMQFSKPRKLVNTINPGARFMTTAMYDAREAIIPGSVYDRSSQGRPSSMYFQTHDQIGMISAGPSHVAAMNIPIPFNLVMPPMPPPGYFGQANGPAAGRGTPKGKTGRGGRQKNRFGLPGPSQTNLPNSQASQDVASQPFSQGALTQGYISMSQPSQMSQPGLSQPELSQDSYLGDEFKSQIDVALSQDSTYQGERAYQHGGVTGLSQY	binds
MOV10 (protein, UniProt Q9HCE1 1-1003) MPSKFSCRQLREAGQCFESFLVVRGLDMETDRERLRTIYNRDFKISFGTPAPGFSSMLYGMKIANLAYVTKTRVRFFRLDRWADVRFPEKRRMKLGSDISKHHKSLLAKIFYDRAEYLHGKHGVDVEVQGPHEARDGQLLIRLDLNRKEVLTLRLRNGGTQSVTLTHLFPLCRTPQFAFYNEDQELPCPLGPGECYELHVHCKTSFVGYFPATVLWELLGPGESGSEGAGTFYIARFLAAVAHSPLAAQLKPMTPFKRTRITGNPVVTNRIEEGERPDRAKGYDLELSMALGTYYPPPRLRQLLPMLLQGTSIFTAPKEIAEIKAQLETALKWRNYEVKLRLLLHLEELQMEHDIRHYDLESVPMTWDPVDQNPRLLTLEVPGVTESRPSVLRGDHLFALLSSETHQEDPITYKGFVHKVELDRVKLSFSMSLLSRFVDGLTFKVNFTFNRQPLRVQHRALELTGRWLLWPMLFPVAPRDVPLLPSDVKLKLYDRSLESNPEQLQAMRHIVTGTTRPAPYIIFGPPGTGKTVTLVEAIKQVVKHLPKAHILACAPSNSGADLLCQRLRVHLPSSIYRLLAPSRDIRMVPEDIKPCCNWDAKKGEYVFPAKKKLQEYRVLITTLITAGRLVSAQFPIDHFTHIFIDEAGHCMEPESLVAIAGLMEVKETGDPGGQLVLAGDPRQLGPVLRSPLTQKHGLGYSLLERLLTYNSLYKKGPDGYDPQFITKLLRNYRSHPTILDIPNQLYYEGELQACADVVDRERFCRWAGLPRQGFPIIFHGVMGKDEREGNSPSFFNPEEAATVTSYLKLLLAPSSKKGKARLSPRSVGVISPYRKQVEKIRYCITKLDRELRGLDDIKDLKVGSVEEFQGQERSVILISTVRSSQSFVQLDLDFNLGFLKNPKRFNVAVTRAKALLIIVGNPLLLGHDPDWKVFLEFCKENGGYTGCPFPAKLDLQQGQNLLQGLSKLSPSTSGPHSHDYLPQEREGEGGLSLQVEPEWRNEL	binds
AIMP2 (protein, UniProt Q13155 1-320) MPMYQVKPYHGGGAPLRVELPTCMYRLPNVHGRSYGPAPGAGHVQEESNLSLQALESRQDDILKRLYELKAAVDGLSKMIQTPDADLDVTNIIQADEPTTLTTNALDLNSVLGKDYGALKDIVINANPASPPLSLLVLHRLLCEHFRVLSTVHTHSSVKSVPENLLKCFGEQNKKQPRQDYQLGFTLIWKNVPKTQMKFSIQTMCPIEGEGNIARFLFSLFGQKHNAVNATLIDSWVDIAIFQLKEGSSKEKAAVFRSMNSALGKSPWLAGNELTVADVVLWSVLQQIGGCSVTVPANVQRWMRSCENLAPFNTALKLLK	binds

Results are given in words; binding and its absence hold for the method and conditions named. In cells and extracts the contact can be indirect. Here binding means that the protein was enriched with, or labelled near, the bait; the list need not be complete.
